PubChem BioAssay AID1259425, University of Nebraska Medical Center – 2018

Test: 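Seek colon cancer weak points whose silencing resembles KSR1 loss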 (primary screen)
Cell system: HCT116 human colon cancer cells
Knock-down reagent: siRNA pool against human genes, 50 nM siRNA
Detection: 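mRNA of six signature genes measured together by branched-DNA assay after 50 nM siRNA pool, blank removed, divided by geometric mean of two housekeeping genes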
Scale: BNIP3L mRNA: higher = more BNIP3L transcript after knockdown; NDRG1 mRNA: higher = more NDRG1 transcript after knockdown; BNIP3 mRNA: higher = more BNIP3 transcript after knockdown; ALDOC mRNA: higher = more ALDOC transcript after knockdown; ACSL5 mRNA: higher = more ACSL5 transcript after knockdown
In all, the deposit lists about 14,000 reagents; shown is a part drawn at random. No sequences are given here. Not given: the time to read-out.

target gene | PubChem SID | BNIP3L mRNA, set 1 | NDRG1 mRNA, set 1 | BNIP3 mRNA, set 1 | ALDOC mRNA, set 1 | ACSL5 mRNA, set 1
NAA35 (N-alpha-acetyltransferase 35, NatC auxiliary subunit) | SID364002933 | 0.0673 | 0.15 | 0.314 | 0.0251 | 0.187
FANCE (FA complementation group E) | SID364002216 | 0.273 | 2.05 | 0.889 | 0.0507 | 0.175
TYMS (thymidylate synthetase) | SID363992368 | 0.0827 | 0.319 | 0.379 | 0.0228 | 0.1
BLTP3A (bridge-like lipid transfer protein family member 3A) | SID364000500 | 0.0716 | 0.0799 | 0.227 | 0.0107 | 0.184
PKNOX2 (PBX/knotted 1 homeobox 2) | SID364002298 | 0.101 | 0.425 | 0.232 | 0.028 | 0.184
PLIN1 (perilipin 1) | SID363993834 | 0.0755 | 0.222 | 0.163 | 0.0281 | 0.2
GSTM4 (glutathione S-transferase mu 4) | SID363992137 | 0.0729 | 0.413 | 0.308 | 0.0803 | 0.0918
PRPH (peripherin) | SID363997085 | 0.0576 | 0.142 | 0.259 | 0.0144 | 0.222
IGF2-AS (IGF2 antisense RNA) | SID364000093 | 0.0677 | 0.232 | 0.227 | 0.017 | 0.122
MON1A (MON1 vesicular trafficking associated A) | SID364003939 | 0.274 | 0.21 | 0.213 | 0.104 | 0.306
KCNJ13 (potassium inwardly rectifying channel subfamily J member 13) | SID363993442 | 0.0714 | 0.297 | 0.276 | 0.0261 | 0.159
SLC29A3 | SID364000992 | 0.128 | 0.222 | 0.358 | 0.0715 | 0.255
SPATA2 (spermatogenesis associated 2) | SID363996889 | 0.126 | 0.311 | 0.42 | 0.0465 | 0.387
MGAT4C (MGAT4 family member C) | SID363998368 | 0.207 | 0.52 | 0.603 | 0.0414 | 0.198
THAP10 (THAP domain containing 10) | SID364001507 | 0.118 | 0.0935 | 0.433 | 0.0485 | 0.297
TACC3 (transforming acidic coiled-coil containing protein 3) | SID363997161 | 0.0417 | 0.266 | 0.309 | 0.0135 | 0.21
BLOC1S4 (biogenesis of lysosomal organelles complex 1 subunit 4) | SID364001010 | 0.14 | 0.345 | 0.339 | 0.05 | 0.131
TFEC (transcription factor EC) | SID363998174 | 0.0666 | 0.0864 | 0.22 | 0.014 | 0.186
SCARB1 (scavenger receptor class B member 1) | SID363996406 | 0.0981 | 0.111 | 0.279 | 0.0266 | 0.165
PPT2 (palmitoyl-protein thioesterase 2) | SID363996083 | 0.152 | 0.276 | 0.333 | 0.0439 | 0.282

Quoted from the listing, 2 entries:
target gene | PubChem SID | BNIP3L mRNA, set 1 | NDRG1 mRNA, set 1 | BNIP3 mRNA, set 1 | ALDOC mRNA, set 1 | ACSL5 mRNA, set 1
SLC29A3 | SID364000992 | 0.128 | 0.222 | 0.358 | 0.0715 | 0.255
SPATA2 (spermatogenesis associated 2) | SID363996889 | 0.126 | 0.311 | 0.42 | 0.0465 | 0.387
